Article PMC12040169 (PLOS Biology, 2025)
This is one part of the list.

system: T1, CTL2-GFP (C. trachomatis L2/434/Bu, GFP-expressing); set-up: species or system HeLa; Intracellular C. trachomatis growth in HeLa cells, bulk GFP fluorescence relative to DMSO; conditions: bulk GFP, single well; 28.5 h, 10 µM; inhibitor
T1 construct: L2/434/Bu, GFP-expressing

Row | Compound | % of control remaining
1 | CN(C)c1cccc(COc2cncc(N3CCNCC3)n2)c1 [CBK200004] | 85.9799%
2 | CNC(=O)C1(Cc2cccc(-c3cccs3)c2)CCN(C(=O)CCc2ccccc2)CC1 [CBK285913] | 115.119%
3 | CCCc1cnc(N2CCN(CC(=O)Nc3ccc(C(C)=O)cc3)CC2)nc1 [CBK086194] | 134.697%
4 | COC(=O)C(C)CN1CC2CCC(CC2)C1 (stereo not drawn) [CBK022785C] | 132.629%
5 | O=c1[nH]c(NCCCO)nc2sc3c(c12)CCCC3 [CBK025611] | 109.73%
6 | Cc1ccc2nsnc2c1NC(=O)CN1CCC(C)CC1 [CBK269568] | 148.228%
7 | Cc1ccc(S(=O)(=O)N(CC(=O)Nc2ccccc2-c2ccccc2)c2cccc(C)c2)cc1 [CBK265988] | 100%
8 | O=C(Cn1cnc2c(oc3ccccc32)c1=O)Nc1ccc2c(c1)OCO2 [CBK287557] | 103.951%
9 | C1=CCC(CN(CCCn2ccnc2)CC2CCOC2)CC1 (stereo not drawn) [CBK283217] | 135.028%
10 | Cc1nnc(SCc2cc(=O)nc(NC(=N)Nc3cccc(Cl)c3)[nH]2)s1 [CBK266318] | 136.459%
11 | Cc1ccc(C(CNCc2cn(C)nc2-c2cccnc2)N(C)C)cc1 (stereo not drawn) [CBK305343] | 132.002%
12 | Cc1cc(COc2ccnc(N3CCCN(CC(N)=O)CC3)n2)no1 [CBK084036] | 121.465%
13 | N#CCCCN1CCC(Oc2nccnc2OCc2ccc(-c3ccccc3)cc2)CC1 [CBK161566] | 95.3679%
14 | Cc1cccc(-c2ncc(C(=O)NCc3csc4ccc(Cl)cc34)cc2-c2ccncc2)c1 [CBK036770] | 118.98%
15 | CC(=O)Nc1ccc(Nc2cc(-c3ccco3)ncn2)cc1 [CBK090719] | 198.015%
16 | Cc1cc(C)c2nc(NC(=O)c3ccc(=O)n(CC(=O)NC4CCCCC4)c3)sc2c1 [CBK285980] | 108.356%
17 | CC(=O)Nc1ccc(-c2ccc(C(=O)NCC3COc4ccccc4O3)cn2)cc1 (stereo not drawn) [CBK158832] | 101.384%
18 | Cn1nc(-c2cccs2)cc1[C@H]1CN2CC[C@H]1C[C@@H]2CNC(=O)c1ccco1 [CBK289100] | 124.347%
19 | S=c1[nH]cnc2sc3c(c12)CCCC3 [CBK027787] | 129.622%
20 | Cc1cc(NC(=O)CN2CCCC2CC(O)c2ccccc2)no1 (stereo not drawn) [CBK305139] | 67.0817%
21 | CSCCCNC(=O)N1CCN(CCc2ccccc2)CC1 [CBK158900] | 110.719%
22 | c1ccc(-n2nnnc2CSc2nc3ccccc3s2)cc1 [CBK266372] | 83.9436%
23 | CC(=O)Nc1cccc(CNC(=O)c2cccnc2OCC(F)(F)F)c1 [CBK304557] | 152.096%
24 | CC1CN(C(=O)c2ncoc2-c2ccc(F)cc2)CC(C)O1 (stereo not drawn) [CBK282379] | 133.079%
25 | Cc1nn(C)c(C)c1CN(C)C(=O)CCCC(=O)O [CBK286879] | 132.642%
26 | NNC(=O)CNC(c1cc(Br)ccc1N)c1ccccc1Cl (stereo not drawn) [CBK262977] | 115.419%

Records 11 through 12, reprinted for reference:
Row | Compound | % of control remaining
11 | Cc1ccc(C(CNCc2cn(C)nc2-c2cccnc2)N(C)C)cc1 (stereo not drawn) [CBK305343] | 132.002%
12 | Cc1cc(COc2ccnc(N3CCCN(CC(N)=O)CC3)n2)no1 [CBK084036] | 121.465%

Following part:

Row | Compound | % of control remaining
27 | COc1ccc(N2CCN(c3cncc(-c4cccnc4)n3)CC2)cc1OC [CBK066086] | 88.0169%
28 | CCOc1ccc(S(=O)(=O)N2CCC(C(=O)N3CCN(C)CC3)CC2)cc1 [CBK270075] | 119.425%
29 | c1ccc2[nH]c(CCc3nc4ccccc4[nH]3)nc2c1 [CBK261807] | 87.2692%
30 | CCN(CC)C(=O)c1cccc(OC)c1 [CBK012105] | 108.763%
31 | O=C1CC2(CCCC2)C(=O)N1c1ccc(S(=O)(=O)NC2CCN(Cc3ccccc3)CC2)cc1Cl [CBK074650] | 102.455%
32 | C=Cn1ncc(CN(CCN(C)C)Cc2ccc(C)o2)c1C [CBK283236] | 82.3396%
33 | O=C(Nc1ccncc1)c1c(O)n(Cc2ccccc2)c2ccccc2c1=O [CBK291222] | 132.486%
34 | CCOC(=O)N1CCC(NS(=O)(=O)c2ccc(NC(C)=O)cc2)CC1 [CBK045470] | 88.0413%
35 | Cc1cccc(NS(=O)(=O)c2ccc(I)cc2)n1 [CBK268818] | 130.712%
36 | CC1=NN(c2ccc(S(N)(=O)=O)cc2)C(=O)/C1=C\c1ccc(-c2cc([N+](=O)[O-])ccc2C)o1 [CBK263460] | 119.077%
37 | Cc1ccc(C(=O)NC2CCCC2)cn1 [CBK200117] | 115.581%
38 | O=C(CN1CC(O)CC1c1cccc(C(F)(F)F)c1)NCc1cccs1 (stereo not drawn) [CBK305253] | 93.7072%
39 | Cc1ncsc1CCOC(=O)N1C[C@@H](C)O[C@@H](C)C1 [CBK200418] | 111.942%
40 | O=C(Cc1ccccn1)N1CCN(Cc2ccccc2)CC1 [CBK200174] | 123.6%
41 | Cc1c(CN2CCCCC2CCN2CCCC2=O)oc2ccccc12 (stereo not drawn) [CBK282181] | 129.593%
42 | Clc1ccc(-c2ccc(CNCCCN3CCOCC3)o2)cc1 [CBK269562C] | 93.3152%
43 | COc1ccc(-n2ncc3c2CC(C)(C)CC3N)cc1 (stereo not drawn) [CBK306789] | 138.956%
44 | O=C(c1c[nH]c(=O)c(Cl)c1)N1CCCCC1CN1CCOCC1 (stereo not drawn) [CBK304416] | 81.5188%
45 | COc1cc(NC(=O)COc2cccc3ccccc23)c(C(=O)O)cc1OC [CBK268253] | 165.655%
46 | CN1CCC(=NNC(=O)c2ccc(CN3CCOCC3)cc2)CC1 [CBK262749] | 113.615%
47 | C[C@@H](Cn1nc2c(cc1=O)CCCC2)NC(=O)c1ccccc1F [CBK284560] | 135.543%
48 | COc1ccc(C2CCN(CC(=O)NCc3ccco3)CC2)cc1 [CBK283562] | 110.954%
49 | O=S(=O)(Nc1cccc2cc[nH]c12)c1cc(Cl)ccc1Cl [CBK153581] | 82.7351%
50 | COc1ccc(S(=O)(=O)Nc2ccc(C(=O)O)c(O)c2)cc1[N+](=O)[O-] [CBK299771] | 187.982%
51 | COc1nccnc1N1CCN(CCc2c[nH]c3ccccc23)CC1 [CBK084231] | 120.928%
